Literature values in US12527768B2, “Compositions comprising an anti-inflammatory drug and a dicer activator for use in the treatment of neuronal diseases” (NeuroSense Therapeutics Ltd., priority 2017, dated 2026).

System: SOD1 mutant zebrafish
Conditions: 1 μM in swimming water; cited from earlier work

Nc1nc2ccc(OC(F)(F)F)cc2s1 [Riluzole]
toxicity in SOD1 mutant zebrafish: no toxicity
